Test results as given in PMC5741621.
Changes are numbered by the printed parent chain. Results are given in words; binding and its absence hold for the method and conditions named. Some entries that bind do so weakly or less than the wild type. Sequences can lack the tags named with a protein.

Protein sequences, listed by entry. Tags and fused reporters are not part of them. Residues count along the entry.
UniProt Q9FIJ0, residues 1-376: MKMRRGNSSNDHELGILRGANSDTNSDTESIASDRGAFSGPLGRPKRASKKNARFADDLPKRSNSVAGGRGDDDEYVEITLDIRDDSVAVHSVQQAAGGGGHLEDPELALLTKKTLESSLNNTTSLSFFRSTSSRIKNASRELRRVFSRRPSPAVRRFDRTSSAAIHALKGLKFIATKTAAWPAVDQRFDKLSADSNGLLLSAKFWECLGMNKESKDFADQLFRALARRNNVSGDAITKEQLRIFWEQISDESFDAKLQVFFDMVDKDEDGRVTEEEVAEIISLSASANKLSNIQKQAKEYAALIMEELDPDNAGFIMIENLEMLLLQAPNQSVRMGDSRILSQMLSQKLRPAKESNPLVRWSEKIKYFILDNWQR

What was measured:
[1] = biological target: T1, GST-DORN1-KD (DORN1 kinase domain) (Arabidopsis) (UniProt Q9LSR8); experiment: pull-down; as the GST pull-down, with lambda protein phosphatase added to release phosphate groups from phosphorylated serine, threonine and tyrosine residues; both purified
T1 sequence: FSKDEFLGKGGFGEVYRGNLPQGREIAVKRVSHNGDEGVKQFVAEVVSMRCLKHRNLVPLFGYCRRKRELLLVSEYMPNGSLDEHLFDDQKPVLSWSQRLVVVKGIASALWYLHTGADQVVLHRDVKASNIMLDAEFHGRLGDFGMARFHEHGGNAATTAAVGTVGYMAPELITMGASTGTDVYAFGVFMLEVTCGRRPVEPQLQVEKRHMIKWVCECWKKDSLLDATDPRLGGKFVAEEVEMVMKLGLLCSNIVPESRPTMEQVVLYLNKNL

[2] = biological target: T1, GST-DORN1-KD (DORN1 kinase domain) (Arabidopsis); experiment: pull-down; 2 μg GST and His recombinant proteins in 50 mM Tris-HCl pH 7.5, 100 mM NaCl, 0.5% Triton-X 100, 2 h at 4 °C; Glutathione Resin beads; blots with anti-His and anti-GST; both purified
[3] = biological target: T2, GST-DORN1-KD-1 (kinase dead, D572N) (Arabidopsis) (UniProt Q9LSR8); experiment: as above
T2 sequence: T1 sequence with D229N

[4] = biological target: T3, GST-DORN1-KD-2 (kinase dead, D525N) (Arabidopsis) (UniProt Q9LSR8); experiment: as above
T3 sequence: T1 sequence with D182N

Measured: binding

His-RBOHD-N (N-terminal cytoplasmic domain of RBOHD) (from UniProt Q9FIJ0 1-376) (domain or fragment)
binds: [1] | [2] | [3] | [4]
